These are yes or no findings as the source states them, for the method shown. In cells and extracts the contact can be indirect. Binding calls can cover weak binding; strength is not graded here.
Columns and labels:
[1] = molecular target: FLAG-tagged SUPERNUMERARY LIMBS (SLMB) (Drosophila); test: co-IP; anti-FLAG affinity gel (EZview Red) on 1 mg of total head proteins of slmb^m flies expressing FLAG-SLMB under tim-gal4, HE buffer (20 mM hepes pH 7.5, 0.1 M KCl, 10 mM EDTA) with 0.1% NP40; anti-TIM immunoblot; per^+ and per^0 backgrounds; different time points, two consecutive time points pooled in per^+
[2] = molecular target: FLAG-tagged CULLIN-3 (CUL-3) (Drosophila); test: co-IP; anti-FLAG affinity gel (EZview Red) on 1 mg of total head proteins of tim>flag-Cul-3 flies, HE buffer (20 mM hepes pH 7.5, 0.1 M KCl, 10 mM EDTA) with 0.1% NP40; anti-TIM immunoblot; per^+ and per^0 backgrounds, with or without heterozygous Cul-3^gft2; flies collected at CT15 in DD

binding [1]	binding [2]	Binder
binds	binds	hypo-phosphorylated TIMELESS (TIM) (protein, UniProt P49021 1-1398, hypo-phosphorylated (fast migrating form on the anti-TIM blot); sites not stated) MDWLLATPQLYSAFSSLGCLEGDTYVVNPNALAILEEINYKLTYEDQTLRTFRRAIGFGQNVRSDLIPLLENAKDDAVLESVIRILVNLTVPVECLFSVDVMYRTDVGRHTIFELNKLLYTSKEAFTEARSTKSVVEYMKHILESDPKLSPHKCDQINNCLLLLRNILHIPETHAHCVMPMMQSMPHGISMQNTILWNLFIQSIDKLLLYLMTCPQRAFWGVTMVQLIALIYKDQHVSTLQKLLSLWFEASLSESSEDNESNTSPPKQGSGDSSPMLTSDPTSDSSDNGSNGRGMGGGMREGTAATLQEVSRKGQEYQNAMARVPADKPDGSEEASDMTGNDSEQPGSPEQSQPAGESMDDGDYEDQRHRQLNEHGEEDEDEDEVEEEEYLQLGPASEPLNLTQQPADKVNNTTNPTSSAPQGCLGNEPFKPPPPLPVRASTSAHAQMQKFNESSYASHVSAVKLGQKSPHAGQLQLTKGKCCPQKRECPSSQSELSDCGYGTQVENQESISTSSNDDDGPQGKPQHQKPPCNTKPRNKPRTIMSPMDKKELRRKKLVKRSKSSLINMKGLVQHTPTDDDISNLLKEFTVDFLLKGYSYLVEELHMQLLSNAKVPIDTSHFFWLVTYFLKFAAQLELDMEHIDTILTYDVLSYLTYEGVSLCEQLELNARQEGSDLKPYLRRMHLVVTAIREFLQAIDTYNKVTHLNEDDKAHLRQLQLQISEMSDLRCLFVLLLRRFNPSIHSKQYLQDLVVTNHILLLILDSSAKLGGCQTIRLSEHITQFATLEVMHYYGILLEDFNNNGEFVNDCIFTMMHHIGGDLGQIGVLFQPIILKTYSRIWEADYELCDDWSDLIEYVIHKFMNTPPKSPLTIPTTSLTEMTKEHNQEHTVCSWSQEEMDTLYWYYVQSKKNNDIVGKIVKLFSNNGNKLKTRISIIQQLLQQDIITLLEYDDLMKFEDAEYQRTLLTTPTSATTESGIEIKECAYGKPSDDVQILLDLIIKENKAQHLLWLQRILIECCFVKLTLRSGLKVPEGDHIMEPVAYHCICKQKSIPVVQWNNEQSTTMLYQPFVLLLHKLGIQLPADAGSIFARIPDYWTPETMYGLAKKLGPLDKLNLKFDASELEDATASSPSRYHHTGPRNSLSSVSSLDVDLGDTEELALIPEVDAAVEKAHAMASTPSPSEIFAVPKTKHCNSIIRYTPDPTPPVPNWLQLVMRSKCNHRTGPSGDPSDCIGSSSTTVDDEGFGKSISAATSQAASTSMSTVNPTTTLSLNMLNTFMGSHNENSSSSGCGGTVSSLSMVALMSTGAAGGGGNTSGLEMDVDASMKSSFERLEVNGSHFSRANNLDQEYSAMVASVYEKEKELNSDNVSLASDLTRMYVSDEDDRLERTEIRVPHYH
binds		phosphorylated TIMELESS (TIM) (protein, UniProt P49021 1-1398, phosphorylated (slow migrating form on the anti-TIM blot); sites not stated) MDWLLATPQLYSAFSSLGCLEGDTYVVNPNALAILEEINYKLTYEDQTLRTFRRAIGFGQNVRSDLIPLLENAKDDAVLESVIRILVNLTVPVECLFSVDVMYRTDVGRHTIFELNKLLYTSKEAFTEARSTKSVVEYMKHILESDPKLSPHKCDQINNCLLLLRNILHIPETHAHCVMPMMQSMPHGISMQNTILWNLFIQSIDKLLLYLMTCPQRAFWGVTMVQLIALIYKDQHVSTLQKLLSLWFEASLSESSEDNESNTSPPKQGSGDSSPMLTSDPTSDSSDNGSNGRGMGGGMREGTAATLQEVSRKGQEYQNAMARVPADKPDGSEEASDMTGNDSEQPGSPEQSQPAGESMDDGDYEDQRHRQLNEHGEEDEDEDEVEEEEYLQLGPASEPLNLTQQPADKVNNTTNPTSSAPQGCLGNEPFKPPPPLPVRASTSAHAQMQKFNESSYASHVSAVKLGQKSPHAGQLQLTKGKCCPQKRECPSSQSELSDCGYGTQVENQESISTSSNDDDGPQGKPQHQKPPCNTKPRNKPRTIMSPMDKKELRRKKLVKRSKSSLINMKGLVQHTPTDDDISNLLKEFTVDFLLKGYSYLVEELHMQLLSNAKVPIDTSHFFWLVTYFLKFAAQLELDMEHIDTILTYDVLSYLTYEGVSLCEQLELNARQEGSDLKPYLRRMHLVVTAIREFLQAIDTYNKVTHLNEDDKAHLRQLQLQISEMSDLRCLFVLLLRRFNPSIHSKQYLQDLVVTNHILLLILDSSAKLGGCQTIRLSEHITQFATLEVMHYYGILLEDFNNNGEFVNDCIFTMMHHIGGDLGQIGVLFQPIILKTYSRIWEADYELCDDWSDLIEYVIHKFMNTPPKSPLTIPTTSLTEMTKEHNQEHTVCSWSQEEMDTLYWYYVQSKKNNDIVGKIVKLFSNNGNKLKTRISIIQQLLQQDIITLLEYDDLMKFEDAEYQRTLLTTPTSATTESGIEIKECAYGKPSDDVQILLDLIIKENKAQHLLWLQRILIECCFVKLTLRSGLKVPEGDHIMEPVAYHCICKQKSIPVVQWNNEQSTTMLYQPFVLLLHKLGIQLPADAGSIFARIPDYWTPETMYGLAKKLGPLDKLNLKFDASELEDATASSPSRYHHTGPRNSLSSVSSLDVDLGDTEELALIPEVDAAVEKAHAMASTPSPSEIFAVPKTKHCNSIIRYTPDPTPPVPNWLQLVMRSKCNHRTGPSGDPSDCIGSSSTTVDDEGFGKSISAATSQAASTSMSTVNPTTTLSLNMLNTFMGSHNENSSSSGCGGTVSSLSMVALMSTGAAGGGGNTSGLEMDVDASMKSSFERLEVNGSHFSRANNLDQEYSAMVASVYEKEKELNSDNVSLASDLTRMYVSDEDDRLERTEIRVPHYH

Reference: article PMC3413713
